Values quoted from earlier work, collected in US20030012825A1, “Metallized molecule therapies” (priority 2000, published 2003).
Where two headings read alike, the source gives them in different places.

solubility (in chloroform, benzene, carbon tetrachloride, acetone and ether): soluble
solubility (in ethanol, water and methanol): insoluble
SMILES: COC1=C(OC)C(=O)C(C/C=C(\C)CC/C=C(\C)CC/C=C(\C)CC/C=C(\C)CC/C=C(\C)CC/C=C(\C)CC/C=C(\C)CC/C=C(\C)CC/C=C(\C)CCC=C(C)C)=C(C)C1=O [Coenzyme Q10]
